Results on two substances are retold here after publication PMC12509316, “Isoform-Selective PAD2/PAD4 Substrates with Unnatural Amino Acids Enable Cellular Peptidylarginine Deiminase Activity Profiling and Reveal Vimentin Citrullination Effects in Macrophages” (Biochemistry, 2025).

One data set has as its system caspase-3. Nature of the data set: Vimentin processing by caspase-3 (SDS-PAGE, Coomassie). As to conditions: caspase-3 20 nM, 30 min. Format: biochemical, human.
For another data set, the system named is calpain-1. Put plainly: Vimentin processing by calpain-1 (SDS-PAGE, Coomassie). Format: biochemical, human. As to conditions: calpain-1 10 nM.

With “citrullinated vimentin: PAD4-mediated citrullinated vimentin”, the “cleavage by caspase-3” value in the data set with caspase-3 was “cleaved at the same sites and exhibited similar kinetics”. The “full-length protein 30 min after addition of calpain-1” value in the data set on calpain-1 (30 min) is given as “remained detectable”. The “cleavage by calpain-1 compared to nonmodified form” value in the data set on calpain-1 (up to 30 min) was “delayed”.

For “vimentin: Recombinant vimentin, purchased from Biotechne (NBP2-35139)”, in the data set on caspase-3, the “cleavage by caspase-3” value was “cleaved at the same sites and exhibited similar kinetics”. Moreover, the “full-length protein 15 min after addition of calpain-1” value with calpain-1 (15 min) is listed as “almost completely disappeared”.
